{"source": "paper PMC5703999", "about": "“The E. coli dicarboxylic acid transporters DauA act as a signal transducer by interacting with the DctA uptake system” (Scientific Reports, 2017)", "binders": {"B1": {"name": "DauA fused to the T18 or T25 domain of adenylate cyclase (protein, UniProt P0AFR2 1-559)", "chain": "MNKIFSSHVMPFRALIDACWKEKYTAARFTRDLIAGITVGIIAIPLAMALAIGSGVAPQYGLYTAAVAGIVIALTGGSRFSVSGPTAAFVVILYPVSQQFGLAGLLVATLLSGIFLILMGLARFGRLIEYIPVSVTLGFTSGIGITIGTMQIKDFLGLQMAHVPEHYLQKVGALFMALPTINVGDAAIGIVTLGILVFWPRLGIRLPGHLPALLAGCAVMGIVNLLGGHVATIGSQFHYVLADGSQGNGIPQLLPQLVLPWDLPNSEFTLTWDSIRTLLPAAFSMAMLGAIESLLCAVVLDGMTGTKHKANSELVGQGLGNIIAPFFGGITATAAIARSAANVRAGATSPISAVIHSILVILALLVLAPLLSWLPLSAMAALLLMVAWNMSEAHKVVDLLRHAPKDDIIVMLLCMSLTVLFDMVIAISVGIVLASLLFMRRIARMTRLAPVVVDVPDDVLVLRVIGPLFFAAAEGLFTDLESRLEGKRIVILKWDAVPVLDAGGLDAFQRFVKRLPEGCELRVCNVEFQPLRTMARAGIQPIPGRLAFFPNRRAAMADL"}}, "biological_target": "MalE-DctA helix 8b-T25 fusion (E. coli)", "assay": "two-hybrid; bacterial two-hybrid (BTH): T18 and T25 fusions co-transformed in E. coli BTH101 (cyaA-), grown overnight in LB at 30 °C; beta-galactosidase activity; background below 150 Miller units; the reporter strain expresses chromosomal DctA and DcuS", "note": "Results are given in words; binding and its absence hold for the method and conditions named. Tags and fused reporters may be left off the sequences shown.", "data": [{"binder": "B1", "values": [{"measurement": "binding", "value": "no binding"}]}]}
